Our source for the binding values is paper PMC5148066.

These are yes or no findings as the source states them, for the method shown. For some assays here: Binding calls can cover weak binding; strength is not graded here.

The target of assay [1] is Bovine papular stomatitis virus chemokine-binding protein (Bovine papular stomatitis virus (strain V660 named for the sequence analysis)). Nature of the assay: SPR; BPSV-CBP immobilised on a CM5 chip (~500 RU) by amine coupling; serial dilutions of mouse chemokines in HBS-EP (20 mM HEPES, 150 mM NaCl, 3.4 mM EDTA, 0.005% Polysorbate 20, pH 7.4) run in triplicate, 3 min association, 10 min dissociation; 25°C, Biacore X100; global fit with a 1:1 binding model; both purified. On the technique in general: SPR reads the build-up and loss of mass on a sensor chip optically.

In assay [2] the target is Bovine papular stomatitis virus chemokine-binding protein (Bovine papular stomatitis virus). The experiment in a line: SPR; BPSV-CBP immobilised on a CM5 chip (~500 RU, amine coupling, 10 mM sodium acetate pH 4.5); serial dilutions of mouse chemokines in HBS-EP pH 7.4 flowed in triplicate, 3 min association, 10 min dissociation, 25°C, Biacore X100; global fit, 1:1 binding model; both purified.

B1: mouse CCL22 (ligand, UniProt O88430 25-92)
chain: GPYGANVEDSICCQDYIRHPLPSRLVKEFFWTSKSCRKPGVVLITVKNRDICADPRQVWVKKLLHKLS
Regarding B1, the binding entry in assay [1] was “no binding”.

B2: mouse CX3CL1 (ligand, UniProt O35188 25-336)
chain: QHLGMTKCEIMCDKMTSRIPVALLIRYQLNQESCGKRAIVLETTQHRRFCADPKEKWVQDAMKHLDHQAAALTKNGGKFEKRVDNVTPGITLATRGLSPSALTKPESATLEDLALELTTISQEARGTMGTSQEPPAAVTGSSLSTSEAQDAGLTAKPQSIGSFEAADISTTVWPSPAVYQSGSSSWAEEKATESPSTTAPSPQVSTTSPSTPEENVGSEGQPPWVQGQDLSPEKSLGSEEINPVHTDNFQERGPGNTVHPSVAPISSEETPSPELVASGSQAPKIEEPIHATADPQKLSVLITPVPDTQAAT
Regarding B2, the binding entry in assay [2] and in assay [1] was “no binding” throughout.

B3: mouse CXCL10 (ligand, UniProt P17515 22-98)
chain: IPLARTVRCNCIHIDDGPVRMRAIGKLEIIPASLSCPRVEIIATMKKNDEQRCLNPESKTIKNLMKAFSQKRSKRAP
For B3, the binding result in assay [1] is “no binding”.

B4: mouse CCL3 (ligand, UniProt P10855 24-92)
chain: APYGADTPTACCFSYSRKIPRQFIVDYFETSSLCSQPGVIFLTKRNRQICADSKETWVQEYITDLELNA
As to B4, the binding entry in assay [1] is on record as “binds”.
